Experimental data as given in publication doi:10.1101/286708.
No constants are given. Whether binding was seen depends on the method and setting. In cells and extracts the contact can be indirect. Some binding calls cover weakened binding; strength is not graded here. Where a sequence is shown, tags or fusion partners need not be part of it.

Protein sequences, listed by entry. Tags and fused reporters are not part of them. Lines headed by an entry give the natural chain unless they say otherwise; changes in a name come on top. Chains listed by the source or under a name are the forms on record and can include a tag or linker. Residues count along the entry.
FLAG-β-TrCP1 expressed in H1299 cells (Q9Y297, form named): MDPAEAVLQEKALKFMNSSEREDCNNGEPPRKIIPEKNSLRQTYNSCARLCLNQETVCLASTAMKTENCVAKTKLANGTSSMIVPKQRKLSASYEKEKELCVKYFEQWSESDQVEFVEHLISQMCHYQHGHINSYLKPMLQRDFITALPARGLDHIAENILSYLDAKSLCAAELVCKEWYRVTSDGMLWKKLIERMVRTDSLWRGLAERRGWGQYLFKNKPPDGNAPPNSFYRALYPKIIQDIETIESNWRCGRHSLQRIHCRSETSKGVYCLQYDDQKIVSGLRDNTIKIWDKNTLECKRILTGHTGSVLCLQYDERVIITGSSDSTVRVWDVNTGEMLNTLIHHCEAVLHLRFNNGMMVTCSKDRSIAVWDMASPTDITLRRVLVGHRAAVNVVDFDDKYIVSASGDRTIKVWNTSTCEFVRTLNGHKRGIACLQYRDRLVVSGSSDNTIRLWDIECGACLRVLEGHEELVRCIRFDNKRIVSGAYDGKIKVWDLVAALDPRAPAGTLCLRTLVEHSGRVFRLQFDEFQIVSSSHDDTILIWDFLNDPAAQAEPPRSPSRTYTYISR
FLAG-MDM2(117-497), in vitro transcribed and translated (Q00987, residues 111-491): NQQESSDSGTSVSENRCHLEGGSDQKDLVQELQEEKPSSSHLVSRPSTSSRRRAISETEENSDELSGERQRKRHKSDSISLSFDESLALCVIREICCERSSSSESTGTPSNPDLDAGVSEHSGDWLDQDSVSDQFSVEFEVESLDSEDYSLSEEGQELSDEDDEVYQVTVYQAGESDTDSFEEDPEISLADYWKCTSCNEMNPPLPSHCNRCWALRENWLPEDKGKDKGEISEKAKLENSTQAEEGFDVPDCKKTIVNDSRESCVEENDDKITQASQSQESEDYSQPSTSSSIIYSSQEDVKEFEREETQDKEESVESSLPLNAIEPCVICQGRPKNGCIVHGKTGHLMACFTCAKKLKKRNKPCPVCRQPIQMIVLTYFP
FLAG-MDM2 expressed in H1299 cells (Q00987, form named): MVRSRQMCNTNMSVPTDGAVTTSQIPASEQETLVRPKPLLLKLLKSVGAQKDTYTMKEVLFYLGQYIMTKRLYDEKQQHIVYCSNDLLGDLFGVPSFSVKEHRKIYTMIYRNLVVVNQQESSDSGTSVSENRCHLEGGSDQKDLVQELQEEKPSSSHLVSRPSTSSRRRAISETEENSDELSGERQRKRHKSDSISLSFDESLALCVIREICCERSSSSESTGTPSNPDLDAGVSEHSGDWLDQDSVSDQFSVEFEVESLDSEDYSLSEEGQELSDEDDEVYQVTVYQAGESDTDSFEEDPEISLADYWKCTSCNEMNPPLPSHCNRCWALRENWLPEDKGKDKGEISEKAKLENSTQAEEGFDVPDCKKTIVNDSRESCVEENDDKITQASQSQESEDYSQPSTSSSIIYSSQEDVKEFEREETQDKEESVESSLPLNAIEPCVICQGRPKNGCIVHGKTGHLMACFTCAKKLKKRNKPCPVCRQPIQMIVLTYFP

Key:
Test in all cases: co-IP
[1] = biological target: FLAG-β-TrCP1 expressed in H1299 cells (human) (UniProt Q9Y297)
[2] = biological target: FLAG-MDM2 expressed in H1299 cells (human) (UniProt Q00987)
[3] = biological target: FLAG-MDM2(117-497), in vitro transcribed and translated (human) (UniProt Q00987)

B1: myc-PER2 expressed in H1299 cells (protein, UniProt O15055-1 1-1255)
chain: MNGYAEFPPSPSNPTKEPVEPQPSQVPLQEDVDMSSGSSGHETNENCSTGRDSQGSDCDDSGKELGMLVEPPDARQSPDTFSLMMAKSEHNPSTSGCSSDQSSKVDTHKELIKTLKELKVHLPADKKAKGKASTLATLKYALRSVKQVKANEEYYQLLMSSEGHPCGADVPSYTVEEMESVTSEHIVKNADMFAVAVSLVSGKILYISDQVASIFHCKRDAFSDAKFVEFLAPHDVGVFHSFTSPYKLPLWSMCSGADSFTQECMEEKSFFCRVSVRKSHENEIRYHPFRMTPYLVKVRDQQGAESQLCCLLLAERVHSGYEAPRIPPEKRIFTTTHTPNCLFQDVDERAVPLLGYLPQDLIETPVLVQLHPSDRPLMLAIHKKILQSGGQPFDYSPIRFRARNGEYITLDTSWSSFINPWSRKISFIIGRHKVRVGPLNEDVFAAHPCTEEKALHPSIQELTEQIHRLLLQPVPHSGSSGYGSLGSNGSHEHLMSQTSSSDSNGHEDSRRRRAEICKNGNKTKNRSHYSHESGEQKKKSVTEMQTNPPAEKKAVPAMEKDSLGVSFPEELACKNQPTCSYQQISCLDSVIRYLESCNEAATLKRKCEFPANVPALRSSDKRKATVSPGPHAGEAEPPSRVNSRTGVGTHLTSLALPGKAESVASLTSQCSYSSTIVHVGDKKPQPELEMVEDAASGPESLDCLAGPALACGLSQEKEPFKKLGLTKEVLAAHTQKEEQSFLQKFKEIRKLSIFQSHCHYYLQERSKGQPSERTAPGLRNTSGIDSPWKKTGKNRKLKSKRVKPRDSSESTGSGGPVSARPPLVGLNATAWSPSDTSQSSCPAVPFPAPVPAAYSLPVFPAPGTVAAPPAPPHASFTVPAVPVDLQHQFAVQPPPFPAPLAPVMAFMLPSYSFPSGTPNLPQAFFPSQPQFPSHPTLTSEMASASQPEFPSRTSIPRQPCACPATRATPPSAMGRASPPLFQSRSSSPLQLNLLQLEEAPEGGTGAMGTTGATETAAVGADCKPGTSRDQQPKAPLTRDEPSDTQNSDALSTSSGLLNLLLNEDLCSASGSAASESLGSGSLGCDASPSGAGSSDTSHTSKYFGSIDSSENNHKAKMNTGMEESEHFIKCVLQDPIWLLMADADSSVMMTYQLPSRNLEAVLKEDREKLKLLQKLQPRFTESQKQELREVHQWMQTGGLPAAIDVAECVYCENKEKGNICIPYEEDIPSLGLSEVSDTKEDENGSPLNHRIEEQT
**Q.** Which results are given for B1?
**A.** binding [1]: binds; binding [2]: binds

B2: myc-PER2(S662A) expressed in H1299 cells (protein, UniProt O15055-1 1-1255)
chain: MNGYAEFPPSPSNPTKEPVEPQPSQVPLQEDVDMSSGSSGHETNENCSTGRDSQGSDCDDSGKELGMLVEPPDARQSPDTFSLMMAKSEHNPSTSGCSSDQSSKVDTHKELIKTLKELKVHLPADKKAKGKASTLATLKYALRSVKQVKANEEYYQLLMSSEGHPCGADVPSYTVEEMESVTSEHIVKNADMFAVAVSLVSGKILYISDQVASIFHCKRDAFSDAKFVEFLAPHDVGVFHSFTSPYKLPLWSMCSGADSFTQECMEEKSFFCRVSVRKSHENEIRYHPFRMTPYLVKVRDQQGAESQLCCLLLAERVHSGYEAPRIPPEKRIFTTTHTPNCLFQDVDERAVPLLGYLPQDLIETPVLVQLHPSDRPLMLAIHKKILQSGGQPFDYSPIRFRARNGEYITLDTSWSSFINPWSRKISFIIGRHKVRVGPLNEDVFAAHPCTEEKALHPSIQELTEQIHRLLLQPVPHSGSSGYGSLGSNGSHEHLMSQTSSSDSNGHEDSRRRRAEICKNGNKTKNRSHYSHESGEQKKKSVTEMQTNPPAEKKAVPAMEKDSLGVSFPEELACKNQPTCSYQQISCLDSVIRYLESCNEAATLKRKCEFPANVPALRSSDKRKATVSPGPHAGEAEPPSRVNSRTGVGTHLTSLALPGKAEAVASLTSQCSYSSTIVHVGDKKPQPELEMVEDAASGPESLDCLAGPALACGLSQEKEPFKKLGLTKEVLAAHTQKEEQSFLQKFKEIRKLSIFQSHCHYYLQERSKGQPSERTAPGLRNTSGIDSPWKKTGKNRKLKSKRVKPRDSSESTGSGGPVSARPPLVGLNATAWSPSDTSQSSCPAVPFPAPVPAAYSLPVFPAPGTVAAPPAPPHASFTVPAVPVDLQHQFAVQPPPFPAPLAPVMAFMLPSYSFPSGTPNLPQAFFPSQPQFPSHPTLTSEMASASQPEFPSRTSIPRQPCACPATRATPPSAMGRASPPLFQSRSSSPLQLNLLQLEEAPEGGTGAMGTTGATETAAVGADCKPGTSRDQQPKAPLTRDEPSDTQNSDALSTSSGLLNLLLNEDLCSASGSAASESLGSGSLGCDASPSGAGSSDTSHTSKYFGSIDSSENNHKAKMNTGMEESEHFIKCVLQDPIWLLMADADSSVMMTYQLPSRNLEAVLKEDREKLKLLQKLQPRFTESQKQELREVHQWMQTGGLPAAIDVAECVYCENKEKGNICIPYEEDIPSLGLSEVSDTKEDENGSPLNHRIEEQT
**Q.** B2 was tested. Which binding [2] did it give?
**A.** binds

B3: myc-PER2, in vitro transcribed and translated (protein, UniProt O15055-1 1-1255)
chain: MNGYAEFPPSPSNPTKEPVEPQPSQVPLQEDVDMSSGSSGHETNENCSTGRDSQGSDCDDSGKELGMLVEPPDARQSPDTFSLMMAKSEHNPSTSGCSSDQSSKVDTHKELIKTLKELKVHLPADKKAKGKASTLATLKYALRSVKQVKANEEYYQLLMSSEGHPCGADVPSYTVEEMESVTSEHIVKNADMFAVAVSLVSGKILYISDQVASIFHCKRDAFSDAKFVEFLAPHDVGVFHSFTSPYKLPLWSMCSGADSFTQECMEEKSFFCRVSVRKSHENEIRYHPFRMTPYLVKVRDQQGAESQLCCLLLAERVHSGYEAPRIPPEKRIFTTTHTPNCLFQDVDERAVPLLGYLPQDLIETPVLVQLHPSDRPLMLAIHKKILQSGGQPFDYSPIRFRARNGEYITLDTSWSSFINPWSRKISFIIGRHKVRVGPLNEDVFAAHPCTEEKALHPSIQELTEQIHRLLLQPVPHSGSSGYGSLGSNGSHEHLMSQTSSSDSNGHEDSRRRRAEICKNGNKTKNRSHYSHESGEQKKKSVTEMQTNPPAEKKAVPAMEKDSLGVSFPEELACKNQPTCSYQQISCLDSVIRYLESCNEAATLKRKCEFPANVPALRSSDKRKATVSPGPHAGEAEPPSRVNSRTGVGTHLTSLALPGKAESVASLTSQCSYSSTIVHVGDKKPQPELEMVEDAASGPESLDCLAGPALACGLSQEKEPFKKLGLTKEVLAAHTQKEEQSFLQKFKEIRKLSIFQSHCHYYLQERSKGQPSERTAPGLRNTSGIDSPWKKTGKNRKLKSKRVKPRDSSESTGSGGPVSARPPLVGLNATAWSPSDTSQSSCPAVPFPAPVPAAYSLPVFPAPGTVAAPPAPPHASFTVPAVPVDLQHQFAVQPPPFPAPLAPVMAFMLPSYSFPSGTPNLPQAFFPSQPQFPSHPTLTSEMASASQPEFPSRTSIPRQPCACPATRATPPSAMGRASPPLFQSRSSSPLQLNLLQLEEAPEGGTGAMGTTGATETAAVGADCKPGTSRDQQPKAPLTRDEPSDTQNSDALSTSSGLLNLLLNEDLCSASGSAASESLGSGSLGCDASPSGAGSSDTSHTSKYFGSIDSSENNHKAKMNTGMEESEHFIKCVLQDPIWLLMADADSSVMMTYQLPSRNLEAVLKEDREKLKLLQKLQPRFTESQKQELREVHQWMQTGGLPAAIDVAECVYCENKEKGNICIPYEEDIPSLGLSEVSDTKEDENGSPLNHRIEEQT
**Q.** How did the binding [3] turn out when B3 was run?
**A.** binds
